{"source": "PubChem BioAssay AID652259 (Drosophila RNAi Screening Center, 2013)", "purpose": "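Identify new Wingless signalling regulators in fly cells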 (primary screen)", "cell system": "Drosophila clone 8 imaginal disc epithelial cells", "reagent": "long dsRNA against Drosophila genes", "conditions": "pathway stimulated by co-transfected Wingless expression plasmid", "read-out": "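Firefly luciferase from a tcf-site Wingless reporter, measured alongside co-transfected Renilla luciferase that tracks transfection; pathway stimulated by a Wingless plasmid; the firefly-to-Renilla ratio is not deposited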", "scale": "firefly reporter light: higher = more Wg reporter light, before normalisation; Renilla control light: higher = more transfected or surviving cells", "active means": "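a knock-down is a candidate when at least two out of four statistical tests show it departing from its plate mean; one test alone signals a weak candidate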", "calls": "active = candidate regulator (raises or lowers reporter); inactive = not a candidate", "note": "The deposit covers about 22,000 reagents; below is an unselected part of those that have a named target and a result. Of all reagents, 233 (1.1%) were called active. 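Light values are raw, unnormalised plate reads; the ratio scores behind the reporter calls were not deposited.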 Entries without a mark were called inactive. Not stated in the record: the amount of reagent, the time to read-out, the dose of the treatment."}
{"Target gene": "defl", "dsRNA": "DRSC10300", "reporter change call, replicate 1": "Wg reporter activity lowered", "firefly reporter light, replicate 1": 2322, "Renilla control light, replicate 1": 1698}
{"Target gene": "zfh1", "dsRNA": "DRSC14014", "firefly reporter light, replicate 1": 4033, "firefly reporter light, replicate 2": 6.51e5, "Renilla control light, replicate 1": 1360, "Renilla control light, replicate 2": 2.90e5}
{"Target gene": "zfh1", "dsRNA": "DRSC17098", "firefly reporter light, replicate 1": 2448, "firefly reporter light, replicate 2": 6474, "Renilla control light, replicate 1": 770, "Renilla control light, replicate 2": 1632}
{"Target gene": "CG1503", "dsRNA": "DRSC20512", "firefly reporter light, replicate 1": 1792, "firefly reporter light, replicate 2": 4962, "Renilla control light, replicate 1": 688, "Renilla control light, replicate 2": 2002}
{"Target gene": "ppk30", "dsRNA": "DRSC15302", "firefly reporter light, replicate 1": 5075, "Renilla control light, replicate 1": 2298}
{"Target gene": "CG30178", "dsRNA": "DRSC21911", "firefly reporter light, replicate 1": 3.82e5, "firefly reporter light, replicate 2": 3.55e5, "Renilla control light, replicate 1": 1.56e5, "Renilla control light, replicate 2": 1.41e5}
{"Target gene": "BORCS5", "dsRNA": "DRSC19427", "firefly reporter light, replicate 1": 3172, "firefly reporter light, replicate 2": 7765, "Renilla control light, replicate 1": 1266, "Renilla control light, replicate 2": 2779}
{"Target gene": "Sgs5", "dsRNA": "DRSC16862", "firefly reporter light, replicate 1": 15415, "Renilla control light, replicate 1": 3590}
{"Target gene": "CG14676", "dsRNA": "DRSC12262", "firefly reporter light, replicate 1": 12758, "Renilla control light, replicate 1": 2368}
{"Target gene": "Alg12", "dsRNA": "DRSC16416", "firefly reporter light, replicate 1": 11661, "Renilla control light, replicate 1": 3348}
{"Target gene": "Coq2", "dsRNA": "DRSC16516", "firefly reporter light, replicate 1": 19852, "Renilla control light, replicate 1": 6576}
{"Target gene": "Coq2", "dsRNA": "DRSC21366", "firefly reporter light, replicate 1": 6.35e5, "firefly reporter light, replicate 2": 6.94e5, "Renilla control light, replicate 1": 4.59e5, "Renilla control light, replicate 2": 3.31e5}
